This is an account of results in PubChem BioAssay AID2685 (National Center for Advancing Translational Sciences (NCATS), 2010).

Usually AC50 stands for the midpoint of the concentration-response curve, whichever way the signal moves. Read a high AC50 as activity only at high concentration.

This is one part of the list. Further columns of the screen follow, without active or inactive calls. Most of these compounds were active or inconclusive in the main read-out, so they are no random draw. Potencies come from curve fits of mixed quality, noted in brackets.

The nature of the assay: qHTS Assay for Lipid Storage Modulators in Drosophila S3 Cells.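 On cell number change: cells counted by Cell Tracker Red CMTPX staining in the red channel.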 The conditions noted are these: BODIPY lipid droplet fluorescence, 18-24 h; for cell number change: measured here: cell count max response, cells fed with added oleic acid. The method, boiled down: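 Drosophila S3 cells got compounds at several concentrations plus oleic acid (400 uM solution). Laser-scanning cytometry with 488 nm excitation read lipid droplets at 500-530 nm and cells at 575-640 nm. Percent activity was relative to 20 uM Triacsin C.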
(In general: qHTS replaces the single test concentration by a dilution series.)

Where [1] appears, read: measured here: lipid fluorescence (Fed channel) AC50, cells fed with added oleic acid.
Setting [2] is: measured here: cell number channel AC50, cells fed with added oleic acid.

Consider `COc1ccc(C2=NN(C(=O)CCC(=O)O)C(c3ccc(OC)c(OC)c3)C2)cc1` (stereo not given), for which the cell number change was determined as 4.99%. The AC50 under setting [1] was 29.1 µM [rising, single point].

On to `CC(C)(C)n1nc2c(c1NC(=O)COc1ccc(Cl)cc1)CSC2`, for which the cell number change was -18.8%. The AC50 under setting [1] was 0.517 µM [rising, single point].

As for `O=C(Nc1nnc(S(=O)(=O)N2CCN(c3ccc(F)cc3)CC2)s1)c1ccco1`, the cell number change is -14.5%. Under setting [1], the AC50 was 2.91 µM [rising, full curve].

With `CN(CC(=O)N1CC=C(c2ccccc2)CC1)S(=O)(=O)c1cnc[nH]1`, the cell number change came out at 1.07%. The AC50 under setting [1] is 0.651 µM [falling, full curve, poor fit].

For `CC(C)OC(=O)C1=C(N)N2C(=O)CSC2=C(C(=O)OC(C)C)C1`, the cell number change turned out to be 40.5%. Under setting [2], the concentration at half-maximal activity (AC50) was 8.2 µM [rising, partial curve, poor fit]. The AC50 under setting [1] was 16.4 µM [rising, partial curve].

Take `Cc1cc2c(c(=O)o1)C1O[C@](c3ccsc3)(Cc3ccccc31)O2`: the cell number change is -3.78%.

On to `N/C(=N\OC(=O)c1ccc2ccccc2c1)c1ccncc1`, for which the cell number change was found to be 36.8%. For the same compound, under setting [2], the AC50 is 32.6 µM [rising, partial curve, poor fit].

`Cc1cc(C)c2[nH]c(=O)c(C(c3nnnn3C3CCCC3)N3CCOCC3)cc2c1` (stereo not given): the cell number change is -2.65%. Under setting [1], the AC50 was 0.206 µM [rising, full curve, poor fit].

In the case of `Cc1ccc(NC(=S)N(CCN2CCOCC2)Cc2cc3cc4c(cc3[nH]c2=O)OCO4)cc1`, the cell number change was 14.8%. For the same compound, under setting [1], the AC50 is 0.058 µM [rising, full curve, poor fit].

On to `CC1=C(C(=O)OC(C)C)C(C2CC=CCC2)NC(=O)N1` (stereo not given), for which the cell number change was -222%. Besides, under setting [2], the AC50 is 23.1 µM [falling, partial curve]. Moreover, the AC50 under setting [1] is 18.4 µM [falling, partial curve].

For `COc1ccc(N(CC(=O)Nc2ccccc2C(=O)O)S(=O)(=O)c2ccc(C)c([N+](=O)[O-])c2)cc1`, the cell number change was 77.1%.

Regarding `O=C(NNC(=O)c1ccc(F)c(S(=O)(=O)N2CCOCC2)c1)c1ccc(Br)cc1`, the cell number change came out at 14.4%. In addition, the AC50 under setting [1] was 6.51 µM [rising, full curve].

With `CC(C)(C)c1ccc(-c2nc3c(C#N)c(-c4ccc5c(c4)OCO5)ccn3n2)cc1`, under setting [2], the AC50 was 0.259 µM [rising, full curve].

As for `CC1CC(C)CN(CCCNS(=O)(=O)c2cc(Br)cc3c2N(C(=O)C2CC2)CC3)C1` (stereo not given), the cell number change was 16.2%. For the same compound, under setting [1], the AC50 is 0.58 µM [falling, single point].

As for `COc1ccc(/C=C/C(=O)N2c3ccccc3Sc3ccc(C(F)(F)F)cc32)cc1`, the cell number change worked out at 5.63%. For the same compound, the AC50 under setting [1] is 5.8 µM [rising, full curve, poor fit].

Take `COc1cccc(CN2CCNC(=O)C2CC(=O)NCCN2CCOCC2)c1OC` (stereo not given): the cell number change was 10.9%. Besides, the AC50 under setting [1] was 23.1 µM [rising, partial curve, poor fit].

Take `O=C(CCl)NN=C(c1ccccc1)c1ccccc1`: the AC50 runs as follows: under setting [2], 0.116 µM [rising, single point]; under setting [1], 29.1 µM [rising, partial curve, poor fit].

As to `CC(=O)Nc1cc2c(cc1NC(=O)Cn1nc(-c3ccccc3)ccc1=O)OCCO2`, the cell number change stood at 46.2%.

For `O=C(Nc1ccc(Cl)c(Cl)c1)Nc1nnc(CC2=CCCCC2)s1`, the cell number change was -29.5%. Moreover, under setting [1], the AC50 is 14.6 µM [falling, single point].

Consider `O=C(Cn1c(=O)c2c3c(sc2n(Cc2ccccc2)c1=O)CCCC3)NCCO`, for which the cell number change is -15.9%. Further, the AC50 under setting [1] was 14.6 µM [falling, partial curve, poor fit].

For the compound `Cc1ccc(O)c(NC(=O)c2cc(-c3ccco3)on2)c1`, the cell number change turned out to be 5%. For the same compound, under setting [1], the AC50 was 1.3 µM [rising, partial curve].

For `COC(=O)C(C)n1cnc2c(nnn2-c2ccc(C)cc2)c1=O` (stereo not given), the cell number change stood at 2.02%. Moreover, the half-maximal activity concentration (AC50) under setting [1] is 0.058 µM [rising, full curve, poor fit].

Turning to `CCN(CC)CCCNC(=O)c1sc2nc(-c3ccc(F)cc3)cn2c1C`, the cell number change is -0.514%.

In the case of `CNc1ccc(Cl)cc1C(N)=O`, the cell number change was 14%. Further, the AC50 under setting [1] was 6.51 µM [falling, single point].

Take `CN(Cc1ccccc1)C(=O)c1cccc(C(=O)N(C)Cc2ccccc2)c1`: the cell number change was -14%. Further, the AC50 under setting [1] is 6.51 µM [falling, full curve, poor fit].

Regarding `COc1ccc(NC(=S)N2CCC(NC(=O)c3ccccc3C)CC2)cc1`, the cell number change stood at 16.7%. The AC50 under setting [2] was 2.59 µM [rising, partial curve, poor fit].

Take `Cc1oc2cc3oc(=O)c(CCC(=O)NCCCN4CCCC4=O)c(C)c3cc2c1C`: the cell number change stood at 4.65%. Further, the AC50 under setting [1] was 0.58 µM [rising, single point].

On to `Cc1ccccc1NC(=O)c1cc[n+]([O-])cc1`, for which the cell number change came to 1.21%.

As to `COc1cccc(CC(=O)NN2C(=O)NC3(CCCCC3)C2=O)c1`, the cell number change is -13.9%. The AC50 under setting [1] was 0.13 µM [falling, full curve, poor fit].

With `O=C(N1CCCCC1)C1(S(=O)(=O)c2ccccc2)CC=CC1`, the cell number change was 1.5%. Under setting [1], the AC50 was 6.51 µM [rising, single point].

Turning to `COc1ccc(CCNCC(=O)Nc2ccc(C)c(Br)c2)cc1OC`, the cell number change is -5.74%. In addition, the AC50 under setting [1] is 29.1 µM [rising, single point].

Take `CCOc1ccccc1NC(=O)CSc1nnc(Cc2ccc(OC)cc2)c(=O)n1N`: the cell number change was 100%. Moreover, the AC50 under setting [2] is 18.4 µM [rising, single point].

Turning to `Cc1ccc(C(=O)N(CC(=O)Nc2sc(C)c(C)c2C(N)=O)C2CCCC2)cc1`, the cell number change was -4.58%. In addition, the AC50 under setting [1] is 0.58 µM [falling, full curve].

With `Cc1cc(C)n(CCNC(=O)CCc2nnc(CCc3ccccc3)o2)n1`, the cell number change is 11.8%. In addition, the AC50 under setting [1] is 0.58 µM [falling, single point].

On to `Cc1cc(Cl)ccc1NC(=S)NCc1ccccc1Cl`, for which the cell number change was 9.53%. Moreover, the AC50 under setting [1] was 20.6 µM [falling, single point].

For `CCOC(=O)CSc1nc(-c2ccccc2)ns1`, the cell number change was -43.9%. Moreover, the AC50 under setting [2] is 2.31 µM [falling, full curve, poor fit]. Also, the AC50 under setting [1] is 2.31 µM [falling, partial curve, poor fit].

In the case of `COc1ccc(CNC(=O)CCN2C(=O)[C@@H]3Cc4ccccc4CN3C2=O)cc1`, the cell number change turned out to be 35.2%. Under setting [2], the AC50 was 3.26 µM [rising, partial curve]. The AC50 under setting [1] was 14.6 µM [rising, partial curve].

`CC(C)n1cnc2c(N(C)c3cccc(Cl)c3)nc(N(CCO)CCO)nc21`: the cell number change amounted to 14.2%. For the same compound, the AC50 under setting [1] is 1.84 µM [rising, full curve].

`CCOc1ccc(S(=O)(=O)Nc2cccc(C(=O)NCC(c3ccc(OC)cc3)N3CCOCC3)c2)cc1` (stereo not given): the cell number change stood at 3.18%.

Consider `CCOC(=O)C1(CC2CCCCO2)CCN(S(=O)(=O)c2ccc(OC)cc2)CC1` (stereo not given), for which the cell number change is -26.3%. The AC50 under setting [1] was 6.51 µM [falling, single point].

With `COC(=O)c1ccccc1NC(=O)CSc1ccccc1`, the cell number change is -18.8%.

`COc1ccccc1Nc1nnc(SCC(=O)Nc2nc(-c3ccc(F)cc3)cs2)s1`: the cell number change was -60.1%. Besides, the AC50 under setting [2] was 1.84 µM [falling, full curve]. Also, the AC50 under setting [1] was 1.3 µM [falling, full curve].

`COc1cc(/C=N/N2CCOCC2)ccc1OCc1ccccc1`: the cell number change was 17.8%. Further, under setting [1], the AC50 was 29.1 µM [rising, single point].

As for `COc1ccccc1C(CNC(=O)C1CCN(C(=O)Nc2ccccc2)CC1)N1CCCC1` (stereo not given), the cell number change came to 6.72%. The AC50 under setting [1] was 23.1 µM [rising, partial curve].

As to `CN(C(=S)NC(=O)c1ccc(F)cc1)C1CCCCC1`, the cell number change was 4.69%. The AC50 under setting [1] is 0.058 µM [rising, partial curve, poor fit].

For `Cc1cccc(OCC(=O)NCC(=O)N/N=C/c2cc(Br)ccc2OCc2ccccc2)c1`, the cell number change is -2.35%. Besides, under setting [1], the AC50 is 1.46 µM [rising, partial curve].

Turning to `Cc1ccccc1Nc1nc(N2CCOCC2)nc(N2CCOCC2)n1`, under setting [2], the AC50 is 0.00461 µM [rising, full curve, poor fit].

As to `COc1ccc([C@]23Cc4cc(C#N)ccc4C(O2)c2c(cc(-c4ccccc4)oc2=O)O3)cc1`, the cell number change is -0.872%. The AC50 under setting [1] is 1.19 µM [rising, single point].

`CCC(=O)Nc1cccc(NC(=O)CSc2nnc(C3CC3)n2C)c1`: the cell number change stood at 0.26%. In addition, under setting [1], the AC50 is 29.1 µM [rising, single point].

As to `N=C1CCCN1c1ccccc1O`, the cell number change is -30.1%.

With `N/C(Cc1ccc([N+](=O)[O-])cc1)=N\OC(=O)Cc1ccccc1`, the cell number change worked out at 27.1%.

As to `COc1ccc(/C(N)=N/OC(=O)Oc2ccccc2)cc1OC`, the cell number change amounted to 6.2%. Moreover, the AC50 under setting [1] is 0.103 µM [falling, full curve, poor fit].

`Cn1nc(C(C)(C)C)cc1NC(=O)Nc1cc(Cl)cc(Cl)c1`: the cell number change was -22.2%. In addition, the AC50 under setting [1] is 16.4 µM [falling, single point].

Consider `CCC(=O)Nc1cccc(C(=O)OCc2cccc([N+](=O)[O-])c2)c1`, for which the AC50 was 0.103 µM [falling, full curve] under setting [2] and 4.11 µM [falling, partial curve] under setting [1].

For the compound `COc1ccc(S(=O)(=O)N(CC(=O)Nc2ccc(S(=O)(=O)N3CCOCC3)cc2)c2ccccc2)cc1`, the cell number change is -9.14%. In addition, the AC50 under setting [1] is 16.4 µM [falling, single point].

For the compound `Cc1sc(/N=C/c2ccccc2O)c(C#N)c1C`, the cell number change came out at 20.1%.

With `CCCCn1c(SCC(=O)c2cc(OC)ccc2OC)nc2cc(S(N)(=O)=O)ccc21`, the cell number change came to 61.2%. In addition, the AC50 under setting [2] is 7.31 µM [rising, partial curve]. For the same compound, under setting [1], the AC50 was 4.11 µM [rising, single point].

As to `Cc1cccc(OCCn2c(=S)[nH]c3ccccc32)c1`, the cell number change was -53%. The AC50 under setting [2] was 18.4 µM [falling, single point]. Besides, under setting [1], the AC50 is 23.1 µM [falling, partial curve, poor fit].

In the case of `O=C(Oc1ccc2c(c1)O/C(=C\c1ccncc1)C2=O)c1ccccc1`, the cell number change was -20.2%. Under setting [1], the AC50 was 2.06 µM [falling, partial curve].

In the case of `CCOc1ccc(CN2CCNC(=O)C2CC(=O)NCCc2cnccn2)cc1` (stereo not given), the cell number change turned out to be 8.25%.

For `CC(C)=NOCC(=O)Nn1c(COc2ccccc2)nc2ccccc2c1=O`, the cell number change is -8.73%.
